# Data from the supplement of paper PMC10849652.
# Sequences of proteins named here, by UniProt entry; tags and fusion partners are left off. A change or cut given only in a name is not applied to a line headed by its entry.
# UniProt Q9NPF0: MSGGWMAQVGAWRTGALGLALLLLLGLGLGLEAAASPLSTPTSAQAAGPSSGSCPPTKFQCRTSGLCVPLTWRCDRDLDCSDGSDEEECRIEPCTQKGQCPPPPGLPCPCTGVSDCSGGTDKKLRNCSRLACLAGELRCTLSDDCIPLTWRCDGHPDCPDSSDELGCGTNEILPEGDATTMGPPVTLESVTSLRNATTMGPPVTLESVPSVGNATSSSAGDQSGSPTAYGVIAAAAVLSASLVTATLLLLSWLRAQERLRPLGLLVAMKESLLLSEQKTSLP
# UniProt O14618: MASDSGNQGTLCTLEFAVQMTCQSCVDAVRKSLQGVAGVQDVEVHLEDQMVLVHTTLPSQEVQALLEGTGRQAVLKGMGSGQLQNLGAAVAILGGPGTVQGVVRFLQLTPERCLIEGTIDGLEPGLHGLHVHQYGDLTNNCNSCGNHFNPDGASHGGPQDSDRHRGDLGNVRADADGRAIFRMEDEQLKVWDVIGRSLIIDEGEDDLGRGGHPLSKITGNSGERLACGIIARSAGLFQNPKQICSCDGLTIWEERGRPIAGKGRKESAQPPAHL
# UniProt P35520: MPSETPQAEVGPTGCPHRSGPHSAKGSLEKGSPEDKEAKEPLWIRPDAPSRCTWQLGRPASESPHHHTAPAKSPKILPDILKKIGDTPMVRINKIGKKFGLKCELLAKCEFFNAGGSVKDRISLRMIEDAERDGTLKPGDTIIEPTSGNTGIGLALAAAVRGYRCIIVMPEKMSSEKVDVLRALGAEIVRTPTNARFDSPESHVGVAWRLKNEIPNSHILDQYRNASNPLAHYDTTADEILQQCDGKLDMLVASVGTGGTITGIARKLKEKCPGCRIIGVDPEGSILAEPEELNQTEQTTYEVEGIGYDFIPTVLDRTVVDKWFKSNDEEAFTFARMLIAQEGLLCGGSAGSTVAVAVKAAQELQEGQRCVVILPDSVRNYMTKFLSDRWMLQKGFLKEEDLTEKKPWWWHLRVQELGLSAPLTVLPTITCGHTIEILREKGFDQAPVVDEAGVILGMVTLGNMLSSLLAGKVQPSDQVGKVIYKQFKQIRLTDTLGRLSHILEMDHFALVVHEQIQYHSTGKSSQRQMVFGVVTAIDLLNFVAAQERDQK
# UniProt Q9BV29: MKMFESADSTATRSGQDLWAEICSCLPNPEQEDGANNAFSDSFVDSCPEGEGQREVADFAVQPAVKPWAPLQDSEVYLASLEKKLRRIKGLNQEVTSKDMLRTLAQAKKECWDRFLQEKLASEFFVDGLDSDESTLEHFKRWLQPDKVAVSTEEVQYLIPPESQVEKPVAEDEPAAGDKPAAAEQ
# UniProt Q5T0F9: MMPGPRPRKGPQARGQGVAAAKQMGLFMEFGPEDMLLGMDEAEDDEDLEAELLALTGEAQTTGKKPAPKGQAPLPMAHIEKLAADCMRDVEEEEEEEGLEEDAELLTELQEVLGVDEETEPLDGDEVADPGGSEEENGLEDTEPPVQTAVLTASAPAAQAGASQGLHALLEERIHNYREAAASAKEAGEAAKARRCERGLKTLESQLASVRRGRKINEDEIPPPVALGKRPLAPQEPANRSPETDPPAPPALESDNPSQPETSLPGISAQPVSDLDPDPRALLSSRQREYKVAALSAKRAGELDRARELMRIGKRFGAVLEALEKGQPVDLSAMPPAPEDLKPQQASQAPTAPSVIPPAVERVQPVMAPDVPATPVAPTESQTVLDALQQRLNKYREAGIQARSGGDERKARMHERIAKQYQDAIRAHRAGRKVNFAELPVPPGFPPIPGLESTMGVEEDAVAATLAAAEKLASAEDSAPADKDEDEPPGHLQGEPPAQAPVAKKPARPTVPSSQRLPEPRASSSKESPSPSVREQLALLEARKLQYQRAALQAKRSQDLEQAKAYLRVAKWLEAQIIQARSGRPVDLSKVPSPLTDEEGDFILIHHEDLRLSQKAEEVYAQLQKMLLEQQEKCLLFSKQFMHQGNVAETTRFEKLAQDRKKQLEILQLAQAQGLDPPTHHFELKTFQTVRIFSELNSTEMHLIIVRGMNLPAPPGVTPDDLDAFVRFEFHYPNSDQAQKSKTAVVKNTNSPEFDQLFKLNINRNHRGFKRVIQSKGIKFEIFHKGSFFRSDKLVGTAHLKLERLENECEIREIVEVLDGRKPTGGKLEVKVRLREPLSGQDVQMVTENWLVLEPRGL
# UniProt P20810: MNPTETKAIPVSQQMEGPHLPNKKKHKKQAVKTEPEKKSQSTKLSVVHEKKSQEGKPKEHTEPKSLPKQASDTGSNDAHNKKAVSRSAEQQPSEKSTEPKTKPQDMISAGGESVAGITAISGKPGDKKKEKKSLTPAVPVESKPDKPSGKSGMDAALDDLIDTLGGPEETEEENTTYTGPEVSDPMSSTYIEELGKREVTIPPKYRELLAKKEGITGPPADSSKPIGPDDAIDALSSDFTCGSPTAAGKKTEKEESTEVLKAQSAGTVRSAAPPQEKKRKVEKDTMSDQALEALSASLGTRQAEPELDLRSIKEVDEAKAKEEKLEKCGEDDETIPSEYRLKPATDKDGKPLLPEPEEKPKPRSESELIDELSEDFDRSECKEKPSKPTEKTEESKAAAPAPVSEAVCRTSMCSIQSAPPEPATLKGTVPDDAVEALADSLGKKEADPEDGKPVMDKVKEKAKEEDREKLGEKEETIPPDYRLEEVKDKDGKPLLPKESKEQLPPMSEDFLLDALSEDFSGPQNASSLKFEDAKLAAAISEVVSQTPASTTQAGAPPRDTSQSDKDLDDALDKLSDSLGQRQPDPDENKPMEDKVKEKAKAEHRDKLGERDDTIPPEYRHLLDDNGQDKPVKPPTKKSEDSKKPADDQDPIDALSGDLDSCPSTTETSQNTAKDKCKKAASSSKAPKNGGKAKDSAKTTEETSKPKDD
# UniProt P24863: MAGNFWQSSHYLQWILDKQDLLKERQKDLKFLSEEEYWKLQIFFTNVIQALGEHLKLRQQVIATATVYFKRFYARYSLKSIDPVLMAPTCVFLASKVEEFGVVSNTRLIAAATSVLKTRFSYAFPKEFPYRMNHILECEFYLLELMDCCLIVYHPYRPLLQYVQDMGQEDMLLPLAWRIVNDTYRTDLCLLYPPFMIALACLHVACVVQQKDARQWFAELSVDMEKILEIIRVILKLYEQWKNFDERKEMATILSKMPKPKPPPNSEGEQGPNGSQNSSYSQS
# UniProt P45973, whole entry, looked up: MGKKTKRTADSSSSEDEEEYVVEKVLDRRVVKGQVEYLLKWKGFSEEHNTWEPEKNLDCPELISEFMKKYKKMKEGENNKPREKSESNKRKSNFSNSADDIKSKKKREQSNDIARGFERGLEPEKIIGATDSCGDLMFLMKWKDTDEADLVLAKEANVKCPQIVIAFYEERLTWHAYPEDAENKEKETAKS
# Some of the results follow.
# Tests used:
# Experiment in all cases: log2 fold change, soluble protein after heating vs DMSO (PISA); higher = thermal stabilisation; K562 lysate, 10 uM; active = over 0.2 and 3.5 SD of the protein, either way, in both replicates (recomputed)
# [1] = compound: C#Cc1cccc(Nc2ncnc3cc(OCCOC)c(OCCOC)cc23)c1 [erlotinib]
# In short: (§1)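 Log-two fold change in thermal stability relative to solvent controls is reported from duplicates. For each sample, crude K562 extract from dounce-homogenised pellets in PBS pH 7.4 with 1 mM MgCl2, at 1 mg/mL protein, was treated with 10 μM compound for 30 min. Aliquots heated for 3 min across 48°C-58°C were pooled, brought to 0.5% NP-40 at 4°C and cleared at 21,000xg for 90 min. The supernatant was quantified by TMTpro 16plex LC-MS/MS with channel sums equalised.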
# [2] = compound: C/C(=N\NC(=O)C1=CC(=CC=C1)S(=O)(=O)N2CCOCC2)/C3=C(C=CC(=C3)Cl)O
# In short: as §1
# [3] = compound: C1=CC(=CC=C1C2=NC3=C(N2)C=C(C=C3)C(=O)N)OC4=CC=C(C=C4)Cl
# In short: as §1
# [4] = compound: C1=CC2=C(C=CC(=C2)/C=C\3/C(=O)NC(=NCC4=CC=CS4)S3)N=C1
# In short: as §1
# [5] = compound: C1=CC2=NC=CN=C2C=C1/C=C/3\C(=O)NC(=O)S3
# In short: as §1
# [6] = compound: C1=CC=C(C=C1)C2=NC(=C(N2)C3=CC=NC=C3)C4=CC(=C(C=C4)Cl)O
# In short: as §1
# [7] = compound: C1=CC=C2C(=C1)C3=NNC4=CC=CC(=C43)C2=O
# In short: as §1
# [8] = compound: C1CCN(C1)C(=O)NC2=CC=CC(=C2)NC3=NC=C(C(=N3)NCCC4=CN=CN4)Br
# In short: as §1
# [9] = compound: C1CN(CCC1(CC2=CC=C(C=C2)Cl)N)C3=NC=NC4=C3C=CN4
# In short: as §1
# [10] = compound: C1COCCN1CCN2C3=CC=CC=C3N=C2NC(=O)C4=CC(=CC=C4)[N+](=O)[O-] [IRAK-1-4 Inhibitor I]
# In short: as §1
# [11] = compound: C=CC(=O)N1CCC[C@@H](n2nc(-c3ccc(Oc4ccccc4)cc3)c3c(N)ncnc32)C1 [ibrutinib]
# In short: as §1
# [12] = compound: CC(=O)c1cnc2ccc(-c3cc(Cl)c(O)c(Cl)c3)nc2c1N[C@H]1CC[C@H](CN(C)C)CC1
# In short: as §1
# [13] = compound: CC(C)(C)Cn1c(N)nc2ccc(-c3[nH]c(C(C)(C)C)nc3-c3ccc(F)cc3)nc21 [ralimetinib]
# In short: as §1
# [14] = compound: CC(C)(O)CC(=O)NCCn1ccc2ncnc(Nc3ccc(Oc4cccc(C(F)(F)F)c4)c(Cl)c3)c21
# In short: as §1
# [15] = compound: CC(C)C1=C2N=C(C=C(N2N=C1)NCC3=CC=CC=C3)NCCCCCCN
# In short: as §1
# [16] = compound: CC1=C(C(CC(=O)N1)C2=CC=C(C=C2)C(F)(F)F)C(=O)NC3=C(C=C4C(=C3)C=NN4)F
# In short: as §1
# [17] = compound: CC1=C(C2=C(C=C1)C(=O)C3=CC=CC=C3N2CCCN)C
# In short: as §1
# [18] = compound: CC1=C(C=C(C=C1)NC(=O)C2=CC(=CC=C2)C(C)(C)C#N)NC3=CC4=C(C=C3)N=CN(C4=O)C
# In short: as §1
# [19] = compound: CC1=C(C=C(C=C1)NC(=O)C2=CC(=CC=C2)N(C)C)NC(=O)C3=CC=C(C=C3)O
# In short: as §1
# [20] = compound: CC1=CC=C(C=C1)SC2=C3C=C(SC3=CN=C2)C(=O)N
# In short: as §1
Target,log2 fold change [1],log2 fold change [2],log2 fold change [3],log2 fold change [4],log2 fold change [5],log2 fold change [6],log2 fold change [7],log2 fold change [8],log2 fold change [9],log2 fold change [10],log2 fold change [11],log2 fold change [12],log2 fold change [13],log2 fold change [14],log2 fold change [15],log2 fold change [16],log2 fold change [17],log2 fold change [18],log2 fold change [19],log2 fold change [20]
CD320 (UniProt Q9NPF0),inactive: -0.05,inactive: -0.047,inactive: -0.015,inactive: -0.031,inactive: 0.037,inactive: 0.103,inactive: 0.019,inactive: -0.064,inactive: 0.012,inactive: -0.016,inactive: 0.15,inactive: -0.046,inactive: -0.006,inactive: 0.013,inactive: -0.02,inactive: 0.032,inactive: 0.025,inactive: -0.018,inactive: -0.05,inactive: 0
CCS (UniProt O14618),inactive: -0.05,inactive: 0.037,inactive: 0.026,inactive: 0.017,inactive: -0.041,inactive: -0.026,inactive: -0.002,inactive: -0.012,inactive: -0.054,inactive: -0.01,inactive: 0.066,inactive: -0.013,inactive: 0.009,inactive: -0.01,inactive: -0.014,inactive: -0.014,inactive: 0.018,inactive: 0.01,inactive: -0.011,inactive: -0.017
CBS (UniProt P35520),inactive: -0.023,inactive: 0.012,inactive: -0.031,inactive: -0.017,inactive: -0.005,inactive: -0.004,inactive: 0.027,inactive: 0.012,inactive: -0.02,inactive: -0.015,inactive: 0.005,inactive: 0.012,inactive: 0.01,inactive: 0.01,inactive: -0.011,inactive: 0.015,inactive: 0.015,inactive: -0.025,inactive: 0.003,inactive: 0.006
CCDC32 isoform 2 (UniProt Q9BV29),inactive: -0.021,inactive: 0.031,inactive: -0.027,inactive: 0,inactive: -0.014,inactive: -0.003,inactive: 0.007,inactive: 0.048,inactive: 0.049,inactive: 0.057,active: 0.276,inactive: 0.026,inactive: -0.005,inactive: 0,inactive: 0.047,inactive: -0.017,inactive: -0.03,inactive: 0.051,inactive: 0.028,inactive: 0.03
CC2D1B isoform 2 (UniProt Q5T0F9),inactive: -0.013,inactive: 0.021,inactive: 0.019,inactive: 0.02,inactive: -0.032,inactive: 0.009,inactive: -0.024,inactive: -0.023,inactive: 0.023,inactive: -0.012,inactive: 0.044,inactive: -0.02,inactive: 0.021,inactive: 0.002,inactive: 0.029,inactive: 0.029,inactive: -0.046,inactive: 0.042,inactive: 0.014,inactive: -0.021
CAST isoform 6 (UniProt P20810),inactive: -0.025,inactive: -0.028,inactive: 0.057,inactive: 0.008,inactive: -0.015,inactive: -0.006,inactive: -0.007,inactive: 0.001,inactive: 0.005,inactive: 0.01,inactive: -0.007,inactive: -0.011,inactive: -0.009,inactive: -0.025,inactive: -0.01,inactive: -0.004,inactive: -0.02,inactive: -0.032,inactive: 0.021,inactive: -0.036
CCNC (UniProt P24863),inactive: 0.081,inactive: -0.158,inactive: -0.078,inactive: -0.102,inactive: 0.127,inactive: -0.045,inactive: 0.163,inactive: -0.087,inactive: -0.049,inactive: -0.008,inactive: -0.04,inactive: 0.087,inactive: 0.026,inactive: 0.011,inactive: 0.02,inactive: -0.05,inactive: 0.034,inactive: 0.061,inactive: 0.016,inactive: 0.184
CBX5 (UniProt P45973),inactive: -0.012,inactive: 0.009,inactive: 0.013,inactive: -0.001,inactive: 0.011,inactive: 0.011,inactive: 0.026,inactive: -0.007,inactive: 0.02,inactive: 0.007,inactive: -0.047,inactive: -0.007,inactive: -0.024,inactive: -0.087,inactive: -0.02,inactive: -0.088,inactive: -0.02,inactive: 0.028,inactive: 0.007,inactive: -0.033
